Test results as given in PMC11111408, “Concurrent inhibition of oncogenic and wild-type RAS-GTP for cancer therapy” (Nature, 2024).
The source gives many values for each of these; only a part stands here.

Tested on: PRISM DNA-barcoded human tumour cell lines
Test: PRISM pooled cell viability assay;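 also: 8 threefold dilutions from 10 µM with 5 days of exposure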
Format: cell-based
Parameters: Area under the curve (AUC): scale not given here
Conditions: for PRISM AUC: KRAS MUT
Protocol: Cells were then lysed in TCL mRNA lysis buffer, and then PCR with reverse transcription was performed. Detection of the barcodes and univariate and multivariate analysis was then performed as previously described. Data analysis is described in the Supplementary Methods. Up-to-date code for our analysis is at the github link: https://github.com/cmap/dockerized_mts.
For every gene with non-silent mutations in at least four cell-lines, we compared the AUC values between cells with and without those mutations using a t-test. This analysis was carried out for: (i) the full dataset; (ii) excluding cell lines with non-silent KRAS mutations; and (iii) excluding cell lines that have either KRAS or NRAS non-silent mutations.

[1] = NB4_HAEMATOPOIETIC_AND_LYMPHOID_TISSUE

Structure (SMILES): CCn1c(-c2cc(N3CCN(C4CC4)CC3)cnc2[C@H](C)OC)c2c3cc(ccc31)-c1csc(n1)C[C@H](NC(=O)[C@H]1[C@@H]3COC[C@@H]31)C(=O)N1CCC[C@H](N1)C(=O)OCC(C)(C)C2 [RMC-7977]
- Area under the curve (AUC) (LXF289_LUNG): 0.6907
- Area under the curve (AUC) (M059K_CENTRAL_NERVOUS_SYSTEM): 0.7622
- Area under the curve (AUC) (MALME3M_SKIN): 1
- Area under the curve (AUC) (MB1_THYROID): 0.7342
- Area under the curve (AUC) (MC116_HAEMATOPOIETIC_AND_LYMPHOID_TISSUE): 0.918
- Area under the curve (AUC) (MCAS_OVARY): 0.6256
- Area under the curve (AUC) (MCC26_SKIN): 0.917
- Area under the curve (AUC) (MCC142_SKIN): 0.7244
- Area under the curve (AUC) (MCF7_BREAST): 0.8296
- Area under the curve (AUC) (MDAMB175VII_BREAST): 0.5331
- Area under the curve (AUC) (MDAMB231_BREAST): 0.6442
- Area under the curve (AUC) (MDAMB361_BREAST): 0.8572
- Area under the curve (AUC) (MDAMB435S_SKIN): 0.9961
- Area under the curve (AUC) (MDAMB436_BREAST): 0.8407
- Area under the curve (AUC) (MDAMB453_BREAST): 0.731
- Area under the curve (AUC) (MDAMB468_BREAST): 0.7126
- Area under the curve (AUC) (MDST8_LARGE_INTESTINE): 0.9473
- Area under the curve (AUC) (MEG01_HAEMATOPOIETIC_AND_LYMPHOID_TISSUE): 0.4846
- Area under the curve (AUC) (MEL285_UVEA): 0.7295
- Area under the curve (AUC) (MEL290_UVEA): 0.8928
- Area under the curve (AUC) (MELHO_SKIN): 1
- Area under the curve (AUC) (MELJUSO_SKIN): 0.3982
- Area under the curve (AUC) (MEWO_SKIN): 0.7209
- Area under the curve (AUC) (MFE280_ENDOMETRIUM): 0.6754
- Area under the curve (AUC) (MFE296_ENDOMETRIUM): 0.8356
- Area under the curve (AUC) (MFE319_ENDOMETRIUM): 0.9941
- Area under the curve (AUC) (MG63_BONE): 0.8866
- Area under the curve (AUC) (MHHES1_BONE): 0.8228
- Area under the curve (AUC) (MHHNB11_AUTONOMIC_GANGLIA): 0.7124
- Area under the curve (AUC) (MIAPACA2_PANCREAS): 0.3588
- Area under the curve (AUC) (MKN1_STOMACH): 0.6619
- Area under the curve (AUC) (MKN7_STOMACH): 0.5948
- Area under the curve (AUC) (MKN45_STOMACH): 0.3337
- Area under the curve (AUC) (MKN74_STOMACH): 0.8298
- PRISM AUC (MM1S_HAEMATOPOIETIC_AND_LYMPHOID_TISSUE): 0.6158
- Area under the curve (AUC) (MM127_SKIN): 0.7266
- Area under the curve (AUC) (MMNK1_BILIARY_TRACT): 0.999
- Area under the curve (AUC) (MOLM13_HAEMATOPOIETIC_AND_LYMPHOID_TISSUE): 0.3776
- Area under the curve (AUC) (MOLP2_HAEMATOPOIETIC_AND_LYMPHOID_TISSUE): 0.849
- Area under the curve (AUC) (MOLT3_HAEMATOPOIETIC_AND_LYMPHOID_TISSUE): 0.8414
- Area under the curve (AUC) (MOLT16_HAEMATOPOIETIC_AND_LYMPHOID_TISSUE): 0.5675
- Area under the curve (AUC) (MONOMAC1_HAEMATOPOIETIC_AND_LYMPHOID_TISSUE): 0.6697
- Area under the curve (AUC) (MONOMAC6_HAEMATOPOIETIC_AND_LYMPHOID_TISSUE): 0.7004
- Area under the curve (AUC) (MON_SOFT_TISSUE): 0.3222
- Area under the curve (AUC) (MP41_UVEA): 0.8614
- Area under the curve (AUC) (MPP89_PLEURA): 0.9924
- Area under the curve (AUC) (MS751_CERVIX): 0.735
- Area under the curve (AUC) (MSTO211H_PLEURA): 0.6492
- Area under the curve (AUC) (NALM6_HAEMATOPOIETIC_AND_LYMPHOID_TISSUE): 0.8351
- Area under the curve (AUC) (NB1_AUTONOMIC_GANGLIA): 0.6342
- Area under the curve (AUC) [1]: 0.5266
- PRISM AUC [1]: 0.232
- Area under the curve (AUC) (NCCIT_TESTIS): 1
- Area under the curve (AUC) (NCIH23_LUNG): 0.6252
- Area under the curve (AUC) (NCIH28_PLEURA): 0.8384
- Area under the curve (AUC) (NCIH82_LUNG): 0.8492
- Area under the curve (AUC) (NCIH196_LUNG): 1
- Area under the curve (AUC) (NCIH211_LUNG): 0.8183
- Area under the curve (AUC) (NCIH226_LUNG): 0.705
- Area under the curve (AUC) (NCIH292_LUNG): 0.6153
- Area under the curve (AUC) (NCIH322_LUNG): 0.6227
- Area under the curve (AUC) (NCIH358_LUNG): 0.2941
- Area under the curve (AUC) (NCIH441_LUNG): 0.4711
- Area under the curve (AUC) (NCIH446_LUNG): 0.9739
- Area under the curve (AUC) (NCIH460_LUNG): 0.4183
- PRISM AUC (NCIH460_LUNG): 0.2192
- Area under the curve (AUC) (NCIH508_LARGE_INTESTINE): 0.6847
- Area under the curve (AUC) (NCIH520_LUNG): 0.8097
- Area under the curve (AUC) (NCIH522_LUNG): 0.9025
- Area under the curve (AUC) (NCIH524_LUNG): 0.9063
- Area under the curve (AUC) (NCIH596_LUNG): 0.7005
- Area under the curve (AUC) (NCIH647_LUNG): 0.7634
- Area under the curve (AUC) (NCIH650_LUNG): 0.6613
- PRISM AUC (NCIH650_LUNG): 0.429
- Area under the curve (AUC) (NCIH661_LUNG): 0.8278
- Area under the curve (AUC) (NCIH727_LUNG): 0.6359
- Area under the curve (AUC) (NCIH747_LARGE_INTESTINE): 0.3921
- Area under the curve (AUC) (NCIH838_LUNG): 0.8455
- Area under the curve (AUC) (NCIH841_LUNG): 0.941
- Area under the curve (AUC) (NCIH1048_LUNG): 0.6675
- Area under the curve (AUC) (NCIH1092_LUNG): 0.6271
- Area under the curve (AUC) (NCIH1299_LUNG): 0.6889
- Area under the curve (AUC) (NCIH1339_LUNG): 0.6849
- Area under the curve (AUC) (NCIH1341_LUNG): 0.6214
- Area under the curve (AUC) (NCIH1355_LUNG): 0.6596
- Area under the curve (AUC) (NCIH1373_LUNG): 0.5107
- Area under the curve (AUC) (NCIH1437_LUNG): 0.7917
- Area under the curve (AUC) (NCIH1563_LUNG): 0.7144
- Area under the curve (AUC) (NCIH1568_LUNG): 0.7755
- Area under the curve (AUC) (NCIH1573_LUNG): 0.6866
- PRISM AUC (NCIH1573_LUNG): 0.4531
- Area under the curve (AUC) (NCIH1581_LUNG): 0.7972
- Area under the curve (AUC) (NCIH1623_LUNG): 0.8649
- Area under the curve (AUC) (NCIH1648_LUNG): 0.3071
- Area under the curve (AUC) (NCIH1650_LUNG): 0.797
- Area under the curve (AUC) (NCIH1651_LUNG): 0.9043
- Area under the curve (AUC) (NCIH1693_LUNG): 0.6784
- Area under the curve (AUC) (NCIH1694_LUNG): 0.767
- Area under the curve (AUC) (NCIH1703_LUNG): 0.7407
- Area under the curve (AUC) (NCIH1792_LUNG): 0.4978
- Area under the curve (AUC) (NCIH1793_LUNG): 0.6566
- Area under the curve (AUC) (NCIH1838_LUNG): 0.5835
- Area under the curve (AUC) (NCIH1876_LUNG): 1
- Area under the curve (AUC) (NCIH1915_LUNG): 0.7374
- Area under the curve (AUC) (NCIH1944_LUNG): 0.6363
- Area under the curve (AUC) (NCIH1975_LUNG): 0.6858
- Area under the curve (AUC) (NCIH2004RT_SOFT_TISSUE): 0.7786
- Area under the curve (AUC) (NCIH2009_LUNG): 0.6469
- PRISM AUC (NCIH2009_LUNG): 0.5685
- Area under the curve (AUC) (NCIH2023_LUNG): 0.6182
- Area under the curve (AUC) (NCIH2052_PLEURA): 0.5755
- Area under the curve (AUC) (NCIH2077_LUNG): 0.7082
- Area under the curve (AUC) (NCIH2087_LUNG): 0.63
- Area under the curve (AUC) (NCIH2110_LUNG): 0.7052
- Area under the curve (AUC) (NCIH2122_LUNG): 0.5463
- Area under the curve (AUC) (NCIH2126_LUNG): 0.7619
- Area under the curve (AUC) (NCIH2170_LUNG): 0.7103
- Area under the curve (AUC) (NCIH2171_LUNG): 0.9478
